Paper doi:10.1101/2024.08.19.608523 (bioRxiv, 2024)
Results are given in words; binding and its absence hold for the method and conditions named. Binding can be weak; no strength is given.

Chains of the proteins cited; added tags and fusions are not shown. Lines headed by an entry give the natural chain unless they say otherwise; changes in a name come on top.
UniProt Q2XVP4: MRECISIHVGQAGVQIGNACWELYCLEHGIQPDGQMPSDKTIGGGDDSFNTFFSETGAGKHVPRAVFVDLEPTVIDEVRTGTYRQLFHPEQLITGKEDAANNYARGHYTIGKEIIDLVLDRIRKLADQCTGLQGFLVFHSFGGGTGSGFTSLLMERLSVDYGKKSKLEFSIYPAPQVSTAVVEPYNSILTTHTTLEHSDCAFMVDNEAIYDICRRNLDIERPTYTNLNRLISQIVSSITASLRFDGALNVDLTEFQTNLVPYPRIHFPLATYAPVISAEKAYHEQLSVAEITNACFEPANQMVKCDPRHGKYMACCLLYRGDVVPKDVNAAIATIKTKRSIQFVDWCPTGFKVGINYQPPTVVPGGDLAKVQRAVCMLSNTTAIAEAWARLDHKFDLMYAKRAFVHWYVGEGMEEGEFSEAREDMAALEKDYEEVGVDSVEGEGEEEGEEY

Target: α-tubulin (in the microtubule) (porcine) (UniProt Q2XVP4)
Experiment: cryo-EM structure

binding: binds
B1: GAS2-GAR domain (residues 198-314) (domain or fragment)
chain: STGNLLDDAVKRISEDPPCKCPTKFCVERLSQGRYRVGEKILFIRMLHNKHVMVRVGGGWETFAGYLLKHDPCRMLQISRVDGKTSPVQSKSPTLKDMNPDNYLVVSATYKAKKEIK
